# Data: the supplement of paper PMC6411743
# ± gives the standard deviation of the averaged measurements. The list shows a part of the results.
# Experiments:
# Assay in all cases: NP40-soluble protein abundance relative to vehicle (solubility fold change) (ratio); higher = more soluble protein in presence of GTP
# TTC1 = biological target: T1, TTC1 (UniProt Q99614)
# T1 sequence (whole entry): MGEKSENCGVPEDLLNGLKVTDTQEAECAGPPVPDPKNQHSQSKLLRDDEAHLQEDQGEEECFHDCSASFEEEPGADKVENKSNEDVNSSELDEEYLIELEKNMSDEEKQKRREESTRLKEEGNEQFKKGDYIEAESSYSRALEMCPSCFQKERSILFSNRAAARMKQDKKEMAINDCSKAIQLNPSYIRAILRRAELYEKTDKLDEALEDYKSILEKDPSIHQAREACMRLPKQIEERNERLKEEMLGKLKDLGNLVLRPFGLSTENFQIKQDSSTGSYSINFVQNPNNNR
# How it was run: (§1)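 Jurkat crude lysate (Dounce-homogenised) was treated with eight concentrations from 0.1 to 10 mM for 10 min at room temperature, then 3 min at 37 °C. It was solubilised with 0.8% NP40 and benzonase (60 min, 4 °C) and ultracentrifuged, and the supernatant was TMT-labelled for LC-MS/MS. Intensities were vsn-normalised, and the value is the fold change against the NP40-processed vehicle per replicate, from three independent experiments.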
# TXNDC17 = biological target: T2, TXNDC17 (UniProt Q9BRA2)
# T2 sequence (whole entry): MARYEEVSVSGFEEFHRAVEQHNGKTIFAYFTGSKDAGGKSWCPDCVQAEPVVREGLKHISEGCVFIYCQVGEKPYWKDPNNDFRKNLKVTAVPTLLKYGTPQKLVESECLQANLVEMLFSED
# How it was run: as §1
# UTP14A = biological target: T3, UTP14A (UniProt Q9BVJ6)
# T3 sequence (whole entry): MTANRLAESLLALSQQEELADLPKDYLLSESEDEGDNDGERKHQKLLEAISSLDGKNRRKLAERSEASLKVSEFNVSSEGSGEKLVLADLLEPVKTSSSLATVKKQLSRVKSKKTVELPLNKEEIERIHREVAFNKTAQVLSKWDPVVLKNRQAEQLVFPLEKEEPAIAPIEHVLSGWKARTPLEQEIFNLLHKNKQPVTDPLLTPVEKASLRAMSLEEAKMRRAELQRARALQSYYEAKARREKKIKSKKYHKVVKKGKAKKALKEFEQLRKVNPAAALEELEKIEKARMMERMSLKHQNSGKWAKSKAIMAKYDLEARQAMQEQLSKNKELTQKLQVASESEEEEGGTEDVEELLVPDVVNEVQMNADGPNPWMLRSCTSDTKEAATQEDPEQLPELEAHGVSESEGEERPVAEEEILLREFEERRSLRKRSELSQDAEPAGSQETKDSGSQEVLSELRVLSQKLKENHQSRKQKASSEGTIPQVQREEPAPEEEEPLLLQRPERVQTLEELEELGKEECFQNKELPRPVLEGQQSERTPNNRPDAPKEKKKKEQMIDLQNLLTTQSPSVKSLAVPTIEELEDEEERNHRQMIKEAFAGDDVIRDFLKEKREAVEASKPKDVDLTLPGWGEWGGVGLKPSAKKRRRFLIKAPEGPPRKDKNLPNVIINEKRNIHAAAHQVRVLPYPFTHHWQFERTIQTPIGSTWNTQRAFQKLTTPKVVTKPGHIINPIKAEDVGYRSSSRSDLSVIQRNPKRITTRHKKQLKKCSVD
# How it was run: as §1
# UniProt Q96KQ4 = biological target: T4, UniProt Q96KQ4
# T4 sequence (whole entry): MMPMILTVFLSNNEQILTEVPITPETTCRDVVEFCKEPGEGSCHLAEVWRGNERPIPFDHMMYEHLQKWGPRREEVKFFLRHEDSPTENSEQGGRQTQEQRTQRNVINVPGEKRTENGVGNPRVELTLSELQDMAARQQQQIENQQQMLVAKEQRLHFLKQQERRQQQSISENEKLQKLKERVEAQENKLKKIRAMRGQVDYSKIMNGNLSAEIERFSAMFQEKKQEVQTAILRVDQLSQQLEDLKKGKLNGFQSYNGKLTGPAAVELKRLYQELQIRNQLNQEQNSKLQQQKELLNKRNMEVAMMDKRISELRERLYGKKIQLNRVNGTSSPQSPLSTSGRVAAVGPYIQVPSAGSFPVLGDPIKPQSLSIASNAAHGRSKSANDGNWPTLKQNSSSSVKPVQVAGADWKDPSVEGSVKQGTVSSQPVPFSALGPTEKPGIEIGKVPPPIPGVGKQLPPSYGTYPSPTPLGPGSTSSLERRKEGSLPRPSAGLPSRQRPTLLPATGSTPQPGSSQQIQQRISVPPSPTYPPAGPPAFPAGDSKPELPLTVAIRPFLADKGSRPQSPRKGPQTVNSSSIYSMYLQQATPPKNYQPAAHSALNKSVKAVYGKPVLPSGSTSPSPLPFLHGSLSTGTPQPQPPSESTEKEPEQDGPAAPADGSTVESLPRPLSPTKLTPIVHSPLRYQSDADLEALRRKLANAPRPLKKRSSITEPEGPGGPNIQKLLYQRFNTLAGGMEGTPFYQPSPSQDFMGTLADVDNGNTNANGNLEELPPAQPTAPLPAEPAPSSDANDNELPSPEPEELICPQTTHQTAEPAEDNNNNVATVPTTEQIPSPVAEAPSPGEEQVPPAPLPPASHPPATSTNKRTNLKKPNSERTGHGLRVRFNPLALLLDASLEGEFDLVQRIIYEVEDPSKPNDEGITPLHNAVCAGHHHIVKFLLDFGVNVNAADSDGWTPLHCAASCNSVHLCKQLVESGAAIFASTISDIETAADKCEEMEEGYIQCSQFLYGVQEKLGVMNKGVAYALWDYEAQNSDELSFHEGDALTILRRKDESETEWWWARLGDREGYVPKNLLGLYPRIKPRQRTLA
# How it was run: as §1
# UniProt Q99733-2 = biological target: T5, UniProt Q99733-2
# T5 sequence (whole entry): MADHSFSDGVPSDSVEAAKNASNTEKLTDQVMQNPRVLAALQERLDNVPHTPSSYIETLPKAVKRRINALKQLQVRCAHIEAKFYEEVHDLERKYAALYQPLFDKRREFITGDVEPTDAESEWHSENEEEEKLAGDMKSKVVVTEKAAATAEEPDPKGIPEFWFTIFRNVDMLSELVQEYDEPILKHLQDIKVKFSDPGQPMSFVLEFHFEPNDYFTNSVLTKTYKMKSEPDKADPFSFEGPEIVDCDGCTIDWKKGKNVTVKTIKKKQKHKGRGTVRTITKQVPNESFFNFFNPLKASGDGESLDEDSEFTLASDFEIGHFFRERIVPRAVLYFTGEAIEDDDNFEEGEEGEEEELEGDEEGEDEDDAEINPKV
# How it was run: as §1
# [1] = biological target: T6, UniProt Q99757 and related entries
# T6 sequence (whole entry): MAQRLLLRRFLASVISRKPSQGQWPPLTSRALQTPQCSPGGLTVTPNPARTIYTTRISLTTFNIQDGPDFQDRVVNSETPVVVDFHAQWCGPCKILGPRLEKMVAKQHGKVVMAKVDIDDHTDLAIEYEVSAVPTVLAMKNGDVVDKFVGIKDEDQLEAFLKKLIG
# How it was run: as §1
# [2] = biological target: T7, UniProt Q99808 and related entries
# T7 sequence (whole entry): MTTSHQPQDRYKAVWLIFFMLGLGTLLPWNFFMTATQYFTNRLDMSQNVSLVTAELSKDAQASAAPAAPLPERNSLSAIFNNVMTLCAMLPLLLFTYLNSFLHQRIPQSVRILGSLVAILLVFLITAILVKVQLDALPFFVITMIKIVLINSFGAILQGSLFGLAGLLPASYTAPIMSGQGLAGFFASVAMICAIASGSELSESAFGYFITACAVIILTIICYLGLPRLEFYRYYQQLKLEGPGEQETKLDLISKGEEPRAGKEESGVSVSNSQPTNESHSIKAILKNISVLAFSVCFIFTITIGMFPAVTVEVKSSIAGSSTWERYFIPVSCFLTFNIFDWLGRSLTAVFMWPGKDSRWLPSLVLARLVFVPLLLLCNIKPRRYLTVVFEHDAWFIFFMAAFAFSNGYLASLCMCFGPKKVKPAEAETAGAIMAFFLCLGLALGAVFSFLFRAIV
# How it was run: as §1
smiles,measurement,setting,value
Nc1nc2c(ncn2[C@@H]2O[C@H](COP(=O)(O)OP(=O)(O)OP(=O)(O)O)[C@@H](O)[C@H]2O)c(=O)[nH]1 [guanosine triphosphate],NP40-soluble protein abundance,TTC1; concentration: 0.1mM,0.88 ± 0.035
same,NP40-soluble protein abundance,TTC1; concentration: 0.5mM,0.871 ± 0.073
same,NP40-soluble protein abundance,TTC1; concentration: 1mM,0.943 ± 0.02
same,NP40-soluble protein abundance,TTC1; concentration: 2mM,0.913 ± 0.075
same,NP40-soluble protein abundance,TTC1; concentration: 4mM,0.893 ± 0.051
same,NP40-soluble protein abundance,TTC1; concentration: 6mM,0.897 ± 0.068
same,NP40-soluble protein abundance,TTC1; concentration: 8mM,0.883 ± 0.083
same,NP40-soluble protein abundance,TTC1; concentration: 10mM,0.904 ± 0.032
same,NP40-soluble protein abundance,TXNDC17; concentration: 0.1mM,0.875 ± 0.058
same,NP40-soluble protein abundance,TXNDC17; concentration: 0.5mM,0.882 ± 0.095
same,NP40-soluble protein abundance,TXNDC17; concentration: 1mM,0.862 ± 0.1
same,NP40-soluble protein abundance,TXNDC17; concentration: 2mM,0.793 ± 0.11
same,NP40-soluble protein abundance,TXNDC17; concentration: 4mM,0.743 ± 0.099
same,NP40-soluble protein abundance,TXNDC17; concentration: 6mM,0.816 ± 0.13
same,NP40-soluble protein abundance,TXNDC17; concentration: 8mM,0.746 ± 0.1
same,NP40-soluble protein abundance,TXNDC17; concentration: 10mM,0.736 ± 0.092
same,NP40-soluble protein abundance,UTP14A; concentration: 0.1mM,1.04 ± 0.052
same,NP40-soluble protein abundance,UTP14A; concentration: 0.5mM,1.02 ± 0.022
same,NP40-soluble protein abundance,UTP14A; concentration: 1mM,1.15 ± 0.087
same,NP40-soluble protein abundance,UTP14A; concentration: 2mM,1.16 ± 0.026
same,NP40-soluble protein abundance,UTP14A; concentration: 4mM,1.24 ± 0.052
same,NP40-soluble protein abundance,UTP14A; concentration: 6mM,1.25 ± 0.044
same,NP40-soluble protein abundance,UTP14A; concentration: 8mM,1.3 ± 0.08
same,NP40-soluble protein abundance,UTP14A; concentration: 10mM,1.4 ± 0.073
same,NP40-soluble protein abundance,UniProt Q96KQ4; concentration: 0.1mM,0.953 ± 0.11
same,NP40-soluble protein abundance,UniProt Q96KQ4; concentration: 0.5mM,0.97 ± 0.04
same,NP40-soluble protein abundance,UniProt Q96KQ4; concentration: 1mM,1.04 ± 0.067
same,NP40-soluble protein abundance,UniProt Q96KQ4; concentration: 2mM,0.99 ± 0.057
same,NP40-soluble protein abundance,UniProt Q96KQ4; concentration: 4mM,1 ± 0.041
same,NP40-soluble protein abundance,UniProt Q96KQ4; concentration: 6mM,0.978 ± 0.029
same,NP40-soluble protein abundance,UniProt Q96KQ4; concentration: 8mM,0.982 ± 0.045
same,NP40-soluble protein abundance,UniProt Q96KQ4; concentration: 10mM,0.997 ± 0.059
same,NP40-soluble protein abundance,UniProt Q99733-2; concentration: 0.1mM,0.959 ± 0.053
same,NP40-soluble protein abundance,UniProt Q99733-2; concentration: 0.5mM,0.975 ± 0.049
same,NP40-soluble protein abundance,UniProt Q99733-2; concentration: 1mM,0.98 ± 0.059
same,NP40-soluble protein abundance,UniProt Q99733-2; concentration: 2mM,0.941 ± 0.077
same,NP40-soluble protein abundance,UniProt Q99733-2; concentration: 4mM,0.937 ± 0.07
same,NP40-soluble protein abundance,UniProt Q99733-2; concentration: 6mM,0.959 ± 0.069
same,NP40-soluble protein abundance,UniProt Q99733-2; concentration: 8mM,0.971 ± 0.03
same,NP40-soluble protein abundance,UniProt Q99733-2; concentration: 10mM,0.951 ± 0.051
same,NP40-soluble protein abundance,[1]; concentration: 0.1mM,0.827 ± 0.091
same,NP40-soluble protein abundance,[1]; concentration: 0.5mM,0.79 ± 0.12
same,NP40-soluble protein abundance,[1]; concentration: 1mM,0.929 ± 0.098
same,NP40-soluble protein abundance,[1]; concentration: 2mM,0.872 ± 0.14
same,NP40-soluble protein abundance,[1]; concentration: 4mM,0.933 ± 0.22
same,NP40-soluble protein abundance,[1]; concentration: 6mM,0.884 ± 0.16
same,NP40-soluble protein abundance,[1]; concentration: 8mM,0.854 ± 0.098
same,NP40-soluble protein abundance,[1]; concentration: 10mM,0.961 ± 0.14
same,NP40-soluble protein abundance,[2]; concentration: 0.1mM,0.869 ± 0.037
same,NP40-soluble protein abundance,[2]; concentration: 0.5mM,0.935 ± 0.08
same,NP40-soluble protein abundance,[2]; concentration: 1mM,0.836 ± 0.035
same,NP40-soluble protein abundance,[2]; concentration: 2mM,0.837 ± 0.051

# 4 records picked at random from those above:
smiles,measurement,setting,value
Nc1nc2c(ncn2[C@@H]2O[C@H](COP(=O)(O)OP(=O)(O)OP(=O)(O)O)[C@@H](O)[C@H]2O)c(=O)[nH]1 [guanosine triphosphate],NP40-soluble protein abundance,UniProt Q96KQ4; concentration: 0.1mM,0.953 ± 0.11
same,NP40-soluble protein abundance,TXNDC17; concentration: 0.1mM,0.875 ± 0.058
same,NP40-soluble protein abundance,UTP14A; concentration: 8mM,1.3 ± 0.08
same,NP40-soluble protein abundance,UniProt Q99733-2; concentration: 4mM,0.937 ± 0.07
